Assay results from the supplement of paper PMC10849652.
Some of the results follow.

Sequences of proteins named here, by UniProt entry; tags and fusion partners are left off. A change or cut given only in a name is not applied to a line headed by its entry.
UniProt P54652, whole entry, looked up: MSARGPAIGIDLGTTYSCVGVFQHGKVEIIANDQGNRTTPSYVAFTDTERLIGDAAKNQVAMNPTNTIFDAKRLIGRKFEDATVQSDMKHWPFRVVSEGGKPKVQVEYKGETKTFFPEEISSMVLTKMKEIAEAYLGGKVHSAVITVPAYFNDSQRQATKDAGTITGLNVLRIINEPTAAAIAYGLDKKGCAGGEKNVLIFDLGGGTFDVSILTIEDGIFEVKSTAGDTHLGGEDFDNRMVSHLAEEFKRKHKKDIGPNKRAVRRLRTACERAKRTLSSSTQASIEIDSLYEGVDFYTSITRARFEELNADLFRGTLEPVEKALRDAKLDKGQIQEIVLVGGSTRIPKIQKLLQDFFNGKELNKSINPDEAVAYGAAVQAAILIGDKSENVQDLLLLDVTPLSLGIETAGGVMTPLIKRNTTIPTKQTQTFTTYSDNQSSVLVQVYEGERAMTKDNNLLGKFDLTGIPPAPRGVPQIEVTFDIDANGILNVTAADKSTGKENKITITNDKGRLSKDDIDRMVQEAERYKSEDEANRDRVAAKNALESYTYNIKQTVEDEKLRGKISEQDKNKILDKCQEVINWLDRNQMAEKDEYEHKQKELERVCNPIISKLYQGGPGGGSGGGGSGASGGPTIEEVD
UniProt Q9BX68: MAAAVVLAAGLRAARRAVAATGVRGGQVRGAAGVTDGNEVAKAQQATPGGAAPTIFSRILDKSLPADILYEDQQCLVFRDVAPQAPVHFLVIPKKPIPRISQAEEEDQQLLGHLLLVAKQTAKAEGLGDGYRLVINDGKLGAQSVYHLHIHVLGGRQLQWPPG
UniProt P31943: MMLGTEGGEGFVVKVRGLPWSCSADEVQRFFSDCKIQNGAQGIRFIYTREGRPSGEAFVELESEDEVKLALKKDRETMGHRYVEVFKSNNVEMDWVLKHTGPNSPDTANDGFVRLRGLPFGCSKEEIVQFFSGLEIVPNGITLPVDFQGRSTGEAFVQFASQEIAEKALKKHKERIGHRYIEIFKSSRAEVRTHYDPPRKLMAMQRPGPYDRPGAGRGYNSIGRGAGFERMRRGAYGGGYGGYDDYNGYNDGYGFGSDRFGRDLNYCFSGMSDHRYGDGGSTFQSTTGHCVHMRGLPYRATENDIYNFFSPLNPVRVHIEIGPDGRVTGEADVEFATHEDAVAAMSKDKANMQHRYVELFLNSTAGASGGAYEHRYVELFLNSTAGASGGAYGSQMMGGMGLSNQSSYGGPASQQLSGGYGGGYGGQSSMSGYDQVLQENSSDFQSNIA
UniProt Q15751: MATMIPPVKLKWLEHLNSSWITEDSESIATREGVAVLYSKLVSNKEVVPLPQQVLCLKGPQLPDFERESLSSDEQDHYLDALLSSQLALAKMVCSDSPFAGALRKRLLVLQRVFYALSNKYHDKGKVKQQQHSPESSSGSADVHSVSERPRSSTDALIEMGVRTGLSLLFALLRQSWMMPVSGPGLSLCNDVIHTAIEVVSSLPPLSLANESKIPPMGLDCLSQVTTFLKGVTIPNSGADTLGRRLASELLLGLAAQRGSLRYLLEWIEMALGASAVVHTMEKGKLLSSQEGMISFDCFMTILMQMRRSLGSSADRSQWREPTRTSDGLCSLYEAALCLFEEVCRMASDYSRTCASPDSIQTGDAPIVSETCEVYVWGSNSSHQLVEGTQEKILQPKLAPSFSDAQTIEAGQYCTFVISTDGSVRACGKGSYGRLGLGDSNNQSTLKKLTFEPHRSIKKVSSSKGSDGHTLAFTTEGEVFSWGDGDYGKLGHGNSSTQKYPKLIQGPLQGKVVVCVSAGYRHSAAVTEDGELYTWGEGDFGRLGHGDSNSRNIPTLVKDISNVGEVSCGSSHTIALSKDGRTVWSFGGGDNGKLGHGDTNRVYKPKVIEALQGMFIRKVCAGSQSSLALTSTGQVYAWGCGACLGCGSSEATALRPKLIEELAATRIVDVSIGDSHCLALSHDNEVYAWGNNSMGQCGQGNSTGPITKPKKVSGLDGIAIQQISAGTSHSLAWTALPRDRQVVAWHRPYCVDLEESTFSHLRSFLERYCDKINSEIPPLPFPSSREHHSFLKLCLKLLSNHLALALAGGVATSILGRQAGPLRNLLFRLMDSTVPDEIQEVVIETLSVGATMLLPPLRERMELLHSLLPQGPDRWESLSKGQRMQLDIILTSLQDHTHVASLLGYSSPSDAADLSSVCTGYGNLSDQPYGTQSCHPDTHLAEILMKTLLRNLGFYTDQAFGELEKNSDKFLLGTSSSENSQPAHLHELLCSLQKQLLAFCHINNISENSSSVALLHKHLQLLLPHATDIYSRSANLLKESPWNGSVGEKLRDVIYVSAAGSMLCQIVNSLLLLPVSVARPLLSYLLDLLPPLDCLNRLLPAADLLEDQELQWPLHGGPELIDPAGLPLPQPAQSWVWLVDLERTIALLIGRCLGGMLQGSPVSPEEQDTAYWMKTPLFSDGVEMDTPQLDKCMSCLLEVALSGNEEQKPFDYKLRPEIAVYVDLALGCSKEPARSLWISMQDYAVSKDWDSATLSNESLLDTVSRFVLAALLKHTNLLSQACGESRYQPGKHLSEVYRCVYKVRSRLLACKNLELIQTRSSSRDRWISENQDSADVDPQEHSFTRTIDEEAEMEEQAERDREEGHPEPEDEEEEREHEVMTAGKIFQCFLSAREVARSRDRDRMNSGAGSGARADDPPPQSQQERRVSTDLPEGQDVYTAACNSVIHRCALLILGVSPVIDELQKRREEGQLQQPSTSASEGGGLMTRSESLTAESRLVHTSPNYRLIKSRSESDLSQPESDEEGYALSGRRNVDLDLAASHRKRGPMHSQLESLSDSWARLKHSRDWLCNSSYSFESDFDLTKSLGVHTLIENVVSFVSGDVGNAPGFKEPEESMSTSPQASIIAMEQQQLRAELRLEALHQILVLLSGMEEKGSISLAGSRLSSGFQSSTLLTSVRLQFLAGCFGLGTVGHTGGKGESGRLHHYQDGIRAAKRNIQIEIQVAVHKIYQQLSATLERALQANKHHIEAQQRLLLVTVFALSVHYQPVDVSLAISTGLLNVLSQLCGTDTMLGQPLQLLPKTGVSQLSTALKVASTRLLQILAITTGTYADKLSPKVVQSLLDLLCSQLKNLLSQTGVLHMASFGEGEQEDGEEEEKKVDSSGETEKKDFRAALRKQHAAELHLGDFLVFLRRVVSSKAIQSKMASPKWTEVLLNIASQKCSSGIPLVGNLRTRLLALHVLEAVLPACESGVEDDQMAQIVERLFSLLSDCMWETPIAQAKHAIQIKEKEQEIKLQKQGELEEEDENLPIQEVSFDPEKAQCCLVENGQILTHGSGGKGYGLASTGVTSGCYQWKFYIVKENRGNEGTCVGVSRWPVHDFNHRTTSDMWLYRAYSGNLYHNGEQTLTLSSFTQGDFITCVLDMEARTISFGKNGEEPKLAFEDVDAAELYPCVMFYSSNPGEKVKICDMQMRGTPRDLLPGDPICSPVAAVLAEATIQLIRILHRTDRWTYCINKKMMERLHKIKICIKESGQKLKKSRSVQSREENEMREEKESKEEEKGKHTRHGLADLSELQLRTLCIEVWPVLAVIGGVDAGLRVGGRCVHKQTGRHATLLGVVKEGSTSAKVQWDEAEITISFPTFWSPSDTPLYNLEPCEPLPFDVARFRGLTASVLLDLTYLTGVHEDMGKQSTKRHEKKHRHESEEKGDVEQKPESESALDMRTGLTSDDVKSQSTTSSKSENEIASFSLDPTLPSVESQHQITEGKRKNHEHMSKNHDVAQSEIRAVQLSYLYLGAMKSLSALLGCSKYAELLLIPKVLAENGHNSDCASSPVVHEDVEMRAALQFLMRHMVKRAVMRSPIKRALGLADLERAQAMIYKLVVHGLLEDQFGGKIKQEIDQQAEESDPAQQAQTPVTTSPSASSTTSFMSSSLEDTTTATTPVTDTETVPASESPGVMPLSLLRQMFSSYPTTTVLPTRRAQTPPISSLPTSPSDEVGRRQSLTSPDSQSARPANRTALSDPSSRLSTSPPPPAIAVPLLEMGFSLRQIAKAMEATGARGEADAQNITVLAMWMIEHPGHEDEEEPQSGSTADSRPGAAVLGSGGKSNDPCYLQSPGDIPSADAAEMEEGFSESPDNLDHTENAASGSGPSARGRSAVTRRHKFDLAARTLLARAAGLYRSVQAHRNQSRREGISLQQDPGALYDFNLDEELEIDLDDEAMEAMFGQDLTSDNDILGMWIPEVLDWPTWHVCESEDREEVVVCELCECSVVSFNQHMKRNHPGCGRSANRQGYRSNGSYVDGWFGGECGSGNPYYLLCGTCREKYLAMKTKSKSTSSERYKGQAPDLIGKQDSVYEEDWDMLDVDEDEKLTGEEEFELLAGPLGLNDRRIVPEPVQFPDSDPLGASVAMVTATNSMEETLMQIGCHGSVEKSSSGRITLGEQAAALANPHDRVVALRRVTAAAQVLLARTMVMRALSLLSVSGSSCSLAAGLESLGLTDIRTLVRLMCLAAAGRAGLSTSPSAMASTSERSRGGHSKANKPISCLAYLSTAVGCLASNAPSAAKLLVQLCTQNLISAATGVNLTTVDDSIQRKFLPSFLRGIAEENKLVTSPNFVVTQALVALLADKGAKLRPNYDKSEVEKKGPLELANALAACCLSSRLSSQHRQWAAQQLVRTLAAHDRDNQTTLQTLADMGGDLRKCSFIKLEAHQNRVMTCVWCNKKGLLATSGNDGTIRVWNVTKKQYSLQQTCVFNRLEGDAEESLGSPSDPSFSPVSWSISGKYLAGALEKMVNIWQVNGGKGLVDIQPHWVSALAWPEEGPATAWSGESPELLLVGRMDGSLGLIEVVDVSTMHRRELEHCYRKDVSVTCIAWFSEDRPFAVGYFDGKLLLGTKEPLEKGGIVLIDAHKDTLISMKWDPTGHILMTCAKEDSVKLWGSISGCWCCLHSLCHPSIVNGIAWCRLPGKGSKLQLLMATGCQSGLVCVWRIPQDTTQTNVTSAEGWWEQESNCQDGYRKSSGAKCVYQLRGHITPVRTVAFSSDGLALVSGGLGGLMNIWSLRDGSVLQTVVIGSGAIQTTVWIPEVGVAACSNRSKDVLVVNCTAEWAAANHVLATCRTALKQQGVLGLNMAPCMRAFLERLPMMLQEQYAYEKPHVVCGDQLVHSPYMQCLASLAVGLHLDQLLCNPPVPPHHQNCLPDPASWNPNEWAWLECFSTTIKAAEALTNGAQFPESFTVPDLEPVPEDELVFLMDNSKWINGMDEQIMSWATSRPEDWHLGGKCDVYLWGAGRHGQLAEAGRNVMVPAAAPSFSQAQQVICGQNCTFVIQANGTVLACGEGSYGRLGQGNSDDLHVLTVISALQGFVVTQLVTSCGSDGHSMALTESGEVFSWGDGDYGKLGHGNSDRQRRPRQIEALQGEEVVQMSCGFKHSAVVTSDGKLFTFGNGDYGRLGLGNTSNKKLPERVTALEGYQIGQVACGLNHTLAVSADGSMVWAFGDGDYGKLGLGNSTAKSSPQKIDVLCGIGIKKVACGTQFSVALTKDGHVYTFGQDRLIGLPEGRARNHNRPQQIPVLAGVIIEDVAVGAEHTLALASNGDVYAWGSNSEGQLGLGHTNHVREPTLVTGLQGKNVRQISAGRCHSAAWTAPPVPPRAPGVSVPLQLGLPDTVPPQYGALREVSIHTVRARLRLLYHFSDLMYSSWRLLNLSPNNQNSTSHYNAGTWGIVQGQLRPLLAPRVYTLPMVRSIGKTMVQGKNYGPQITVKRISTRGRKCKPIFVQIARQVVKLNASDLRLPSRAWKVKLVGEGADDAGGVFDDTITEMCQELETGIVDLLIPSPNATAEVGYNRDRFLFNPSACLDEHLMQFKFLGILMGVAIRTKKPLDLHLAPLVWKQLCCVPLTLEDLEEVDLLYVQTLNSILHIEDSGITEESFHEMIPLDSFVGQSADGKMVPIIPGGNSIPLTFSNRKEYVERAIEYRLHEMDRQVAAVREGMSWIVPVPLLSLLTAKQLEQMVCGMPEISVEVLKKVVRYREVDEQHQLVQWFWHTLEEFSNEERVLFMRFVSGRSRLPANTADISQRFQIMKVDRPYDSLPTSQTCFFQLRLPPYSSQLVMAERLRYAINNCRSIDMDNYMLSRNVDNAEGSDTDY
UniProt P52597: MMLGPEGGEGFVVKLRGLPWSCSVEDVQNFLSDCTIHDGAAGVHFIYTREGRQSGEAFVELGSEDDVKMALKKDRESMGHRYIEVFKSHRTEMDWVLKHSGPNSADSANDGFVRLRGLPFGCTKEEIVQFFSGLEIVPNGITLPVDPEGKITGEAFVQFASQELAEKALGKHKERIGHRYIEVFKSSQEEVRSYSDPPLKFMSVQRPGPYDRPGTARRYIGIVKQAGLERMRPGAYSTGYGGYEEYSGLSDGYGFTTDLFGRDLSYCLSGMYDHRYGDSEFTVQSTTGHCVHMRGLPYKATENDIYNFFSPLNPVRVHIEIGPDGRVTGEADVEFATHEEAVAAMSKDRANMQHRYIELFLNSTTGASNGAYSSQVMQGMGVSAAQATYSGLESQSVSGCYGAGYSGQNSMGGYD

Experiments:
Assay in all cases: log2 fold change, soluble protein after heating vs DMSO (PISA); higher = thermal stabilisation; K562 lysate, 10 uM; active = over 0.2 and 3.5 SD of the protein, either way, in both replicates (recomputed)
[1] = compound: C1=CC=C(C=C1)[C@H](COC2=CC3=C(C=C2)NC(=O)N3)NC(=O)C4=CC=CN(C4=O)CC5=CC(=C(C=C5)F)F
Outline: (§1)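 To prepare the extract, K562 pellets were dounce-homogenised in PBS pH 7.4 with 1 mM MgCl2, giving crude material at 1 mg/mL protein. This was treated with 10 μM compound for 30 min, then heated in aliquots for 3 min over 48°C-58°C before pooling and addition of NP-40 to 0.5% at 4°C. Centrifugation at 21,000xg for 90 min left soluble protein in the supernatant, which TMTpro 16plex LC-MS/MS quantified with equalised channel sums. Results are log-two fold changes in thermal stability compared with solvent controls, from duplicates.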

[2] = compound: CC1=C(SC2=C1C(=N[C@H](C3=NN=C(N32)C)CC(=O)N)C4=CC=C(C=C4)Cl)C
Outline: as §1

[3] = compound: CC1=C2C(=CC=C1)N=C(N(C2=O)C3=CC=CC=C3C)CN4C=NC5=C(N=CN=C54)N
Outline: as §1

[4] = compound: Cc1sc2c(c1C)C(c1ccc(Cl)cc1)=N[C@@H](CC(=O)OC(C)(C)C)c1nnc(C)n1-2
Outline: as §1

[5] = compound: c1ccc([C@@H]2C[C@H]2NC2CCNCC2)cc1
Outline: as §1

Measured: log2 fold change

HEXB (UniProt P07686)
inactive: [1] 0.008 | [2] 0.023 | [3] 0.005 | [4] 0.025 | [5] 0.054

HNRNPA0 (UniProt Q13151)
inactive: [1] 0 | [2] 0.05 | [3] 0.013 | [4] 0.058 | [5] 0.006

HINT1 (UniProt P49773)
inactive: [1] -0.033 | [2] -0.101 | [3] 0.001 | [4] 0.03 | [5] -0.068

HSPA2 (UniProt P54652)
inactive: [1] 0.037 | [2] 0.081 | [3] 0.052 | [4] -0.024 | [5] -0.142

HIKESHI (UniProt Q53FT3)
inactive: [1] -0.101 | [2] 0.036 | [3] 0.006 | [4] -0.023 | [5] 0.044

HOOK3 (UniProt Q86VS8)
inactive: [1] 0.043 | [2] -0.02 | [3] 0.003 | [4] -0.011 | [5] 0.024

HINT2 (UniProt Q9BX68)
inactive: [1] -0.011 | [2] -0.062 | [3] -0.017 | [4] 0.028 | [5] 0.019

HMGCL (UniProt P35914)
inactive: [1] 0.057 | [2] -0.017 | [3] 0.058 | [4] 0.046 | [5] 0.006

HELB (UniProt Q8NG08)
inactive: [1] 0.011 | [2] -0.02 | [3] 0.019 | [4] -0.011 | [5] 0.019

HMGN4 (UniProt O00479)
inactive: [1] -0.137 | [2] -0.395 | [3] -0.186 | [4] 0.297 | [5] 0.513

HEPH isoform 3 (UniProt Q9BQS7)
inactive: [1] -0.06 | [2] 0.083 | [3] 0.022 | [4] 0.002 | [5] -0.037

HSDL1 (UniProt Q3SXM5)
inactive: [1] 0.005 | [2] -0.017 | [3] -0.014 | [4] -0.012 | [5] -0.06

HNRNPH1 (UniProt P31943)
inactive: [1] 0.038 | [2] -0.015 | [3] 0.007 | [4] 0.009 | [5] 0.017

HIST2H2BC (UniProt Q6DN03)
inactive: [1] -0.03 | [2] 0.065 | [3] 0.014 | [4] 0.003 | [5] 0.165

HSP90AB4P (UniProt Q58FF6)
inactive: [1] -0.254 | [2] 0.113 | [3] -0.024 | [4] -0.196 | [5] 0.034

HM13 (UniProt Q8TCT9)
inactive: [1] -0.036 | [2] 0.047 | [3] 0.018 | [4] -0.044 | [5] -0.133

HERC1 (UniProt Q15751)
inactive: [1] -0.019 | [2] -0.023 | [3] 0.028 | [4] 0.007 | [5] -0.014

HNRNPF (UniProt P52597)
inactive: [1] 0.072 | [2] -0.007 | [3] 0.012 | [4] 0.024 | [5] -0.022

HSDL2 (UniProt Q6YN16)
inactive: [1] 0.026 | [2] 0.027 | [3] 0.031 | [4] -0.009 | [5] -0.013

HNRNPR (UniProt O43390)
inactive: [1] -0.017 | [2] 0.048 | [3] 0.091 | [4] 0.001 | [5] 0.04

HEXA (UniProt P06865)
inactive: [1] -0.006 | [2] 0.033 | [3] 0.025 | [4] 0.022 | [5] 0.001

HOMEZ isoform 3 (UniProt Q8IX15)
inactive: [1] -0.008 | [2] 0.092 | [3] -0.026 | [4] 0.009 | [5] 0.013

HIGD2A (UniProt Q9BW72)
inactive: [4] 0.224 | [5] -0.049

2 neighbouring entries from above:
HEXA (UniProt P06865)
inactive: [1] -0.006 | [2] 0.033 | [3] 0.025 | [4] 0.022 | [5] 0.001

HOMEZ isoform 3 (UniProt Q8IX15)
inactive: [1] -0.008 | [2] 0.092 | [3] -0.026 | [4] 0.009 | [5] 0.013
